Drawing on paper PMC8741842, this text covers binding for 2 molecules.

The chains behind the UniProt entries cited, without tags or fusion partners. Residues count along the entry.
UniProt Q8R0I0, residues 18-805: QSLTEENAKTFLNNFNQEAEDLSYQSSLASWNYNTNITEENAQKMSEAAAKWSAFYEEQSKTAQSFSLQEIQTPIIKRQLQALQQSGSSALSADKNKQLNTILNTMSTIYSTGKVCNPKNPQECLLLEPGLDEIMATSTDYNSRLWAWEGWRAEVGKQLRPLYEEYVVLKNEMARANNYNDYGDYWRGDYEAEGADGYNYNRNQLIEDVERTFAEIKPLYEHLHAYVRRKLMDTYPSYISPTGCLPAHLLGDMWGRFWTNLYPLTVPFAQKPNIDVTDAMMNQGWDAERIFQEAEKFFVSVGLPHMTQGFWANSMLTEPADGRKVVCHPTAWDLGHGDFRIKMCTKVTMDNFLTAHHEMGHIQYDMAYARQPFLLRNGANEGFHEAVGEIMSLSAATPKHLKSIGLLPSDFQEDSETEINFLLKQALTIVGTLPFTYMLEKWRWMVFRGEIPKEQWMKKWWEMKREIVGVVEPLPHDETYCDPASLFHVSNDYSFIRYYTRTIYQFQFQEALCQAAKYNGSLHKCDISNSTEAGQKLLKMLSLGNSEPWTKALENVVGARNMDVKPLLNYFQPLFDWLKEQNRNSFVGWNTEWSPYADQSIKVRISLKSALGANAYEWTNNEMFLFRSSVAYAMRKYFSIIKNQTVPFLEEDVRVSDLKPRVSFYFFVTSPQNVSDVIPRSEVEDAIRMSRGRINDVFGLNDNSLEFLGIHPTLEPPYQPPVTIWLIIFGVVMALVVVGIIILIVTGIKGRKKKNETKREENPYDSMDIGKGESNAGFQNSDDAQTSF

These are yes or no findings as the source states them, for the method shown. In cells and extracts the contact can be indirect. Some entries that bind do so weakly or less than the wild type.

The target of test [1] is T1, caveolin-1 (mouse (endogenous in myocardial tissue)) (UniProt P49817).
T1 sequence: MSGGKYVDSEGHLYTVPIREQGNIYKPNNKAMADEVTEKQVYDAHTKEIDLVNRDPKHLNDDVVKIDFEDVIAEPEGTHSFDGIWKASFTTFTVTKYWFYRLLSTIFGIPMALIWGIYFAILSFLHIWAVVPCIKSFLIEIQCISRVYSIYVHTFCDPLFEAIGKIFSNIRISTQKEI
The experiment in a line: co-IP; mouse myocardial tissue lysed in RIPA buffer; supernatant with primary antibody or control IgG and protein A/G agarose beads overnight at 4°C; beads washed 3 times with PBS; Western blot of the IP product; both directions. In general terms: A western blot detects proteins with antibodies after separation by electrophoresis.

Test [2] concerns the target angiotensin-converting enzyme 2 (mouse (endogenous in myocardial tissue)) (UniProt Q8R0I0). The test is described as above.

As to “angiotensin-converting enzyme 2 (from UniProt Q8R0I0 18-805)”, the binding entry in test [1] is “binds”.

B1: caveolin-1 (protein, UniProt P49817 1-178)
chain: MSGGKYVDSEGHLYTVPIREQGNIYKPNNKAMADEVTEKQVYDAHTKEIDLVNRDPKHLNDDVVKIDFEDVIAEPEGTHSFDGIWKASFTTFTVTKYWFYRLLSTIFGIPMALIWGIYFAILSFLHIWAVVPCIKSFLIEIQCISRVYSIYVHTFCDPLFEAIGKIFSNIRISTQKEI
On to B1, for which, in test [2], the binding result is reported as “binds”.
